Reference: paper doi:10.1101/2021.01.15.426835
No constants are given. Whether binding was seen depends on the method and setting. In cells and extracts the contact can be indirect. These calls come from enrichment with a bait or labelling near it, and not all partners need be listed.

By UniProt entry, the sequences of proteins in these tests, tags left out.
UniProt Q60598: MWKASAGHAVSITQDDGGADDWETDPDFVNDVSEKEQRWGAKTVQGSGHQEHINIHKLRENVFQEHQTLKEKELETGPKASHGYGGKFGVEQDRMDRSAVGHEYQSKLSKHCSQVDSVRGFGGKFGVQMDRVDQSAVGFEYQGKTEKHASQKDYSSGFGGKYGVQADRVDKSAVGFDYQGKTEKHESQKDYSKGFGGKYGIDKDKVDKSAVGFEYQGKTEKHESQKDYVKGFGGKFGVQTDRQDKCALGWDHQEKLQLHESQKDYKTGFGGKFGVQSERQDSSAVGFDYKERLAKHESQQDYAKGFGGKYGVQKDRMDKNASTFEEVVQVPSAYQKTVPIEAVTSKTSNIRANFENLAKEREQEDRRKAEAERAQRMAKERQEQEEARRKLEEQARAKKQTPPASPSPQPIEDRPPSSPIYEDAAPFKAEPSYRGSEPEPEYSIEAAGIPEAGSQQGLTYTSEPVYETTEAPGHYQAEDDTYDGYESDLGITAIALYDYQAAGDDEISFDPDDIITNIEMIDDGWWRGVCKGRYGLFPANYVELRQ
UniProt P18760: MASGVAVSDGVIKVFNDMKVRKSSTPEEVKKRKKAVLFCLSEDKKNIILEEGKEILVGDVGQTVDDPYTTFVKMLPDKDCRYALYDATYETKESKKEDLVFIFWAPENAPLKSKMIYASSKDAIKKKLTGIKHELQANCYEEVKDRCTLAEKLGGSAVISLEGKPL
UniProt Q99KW3: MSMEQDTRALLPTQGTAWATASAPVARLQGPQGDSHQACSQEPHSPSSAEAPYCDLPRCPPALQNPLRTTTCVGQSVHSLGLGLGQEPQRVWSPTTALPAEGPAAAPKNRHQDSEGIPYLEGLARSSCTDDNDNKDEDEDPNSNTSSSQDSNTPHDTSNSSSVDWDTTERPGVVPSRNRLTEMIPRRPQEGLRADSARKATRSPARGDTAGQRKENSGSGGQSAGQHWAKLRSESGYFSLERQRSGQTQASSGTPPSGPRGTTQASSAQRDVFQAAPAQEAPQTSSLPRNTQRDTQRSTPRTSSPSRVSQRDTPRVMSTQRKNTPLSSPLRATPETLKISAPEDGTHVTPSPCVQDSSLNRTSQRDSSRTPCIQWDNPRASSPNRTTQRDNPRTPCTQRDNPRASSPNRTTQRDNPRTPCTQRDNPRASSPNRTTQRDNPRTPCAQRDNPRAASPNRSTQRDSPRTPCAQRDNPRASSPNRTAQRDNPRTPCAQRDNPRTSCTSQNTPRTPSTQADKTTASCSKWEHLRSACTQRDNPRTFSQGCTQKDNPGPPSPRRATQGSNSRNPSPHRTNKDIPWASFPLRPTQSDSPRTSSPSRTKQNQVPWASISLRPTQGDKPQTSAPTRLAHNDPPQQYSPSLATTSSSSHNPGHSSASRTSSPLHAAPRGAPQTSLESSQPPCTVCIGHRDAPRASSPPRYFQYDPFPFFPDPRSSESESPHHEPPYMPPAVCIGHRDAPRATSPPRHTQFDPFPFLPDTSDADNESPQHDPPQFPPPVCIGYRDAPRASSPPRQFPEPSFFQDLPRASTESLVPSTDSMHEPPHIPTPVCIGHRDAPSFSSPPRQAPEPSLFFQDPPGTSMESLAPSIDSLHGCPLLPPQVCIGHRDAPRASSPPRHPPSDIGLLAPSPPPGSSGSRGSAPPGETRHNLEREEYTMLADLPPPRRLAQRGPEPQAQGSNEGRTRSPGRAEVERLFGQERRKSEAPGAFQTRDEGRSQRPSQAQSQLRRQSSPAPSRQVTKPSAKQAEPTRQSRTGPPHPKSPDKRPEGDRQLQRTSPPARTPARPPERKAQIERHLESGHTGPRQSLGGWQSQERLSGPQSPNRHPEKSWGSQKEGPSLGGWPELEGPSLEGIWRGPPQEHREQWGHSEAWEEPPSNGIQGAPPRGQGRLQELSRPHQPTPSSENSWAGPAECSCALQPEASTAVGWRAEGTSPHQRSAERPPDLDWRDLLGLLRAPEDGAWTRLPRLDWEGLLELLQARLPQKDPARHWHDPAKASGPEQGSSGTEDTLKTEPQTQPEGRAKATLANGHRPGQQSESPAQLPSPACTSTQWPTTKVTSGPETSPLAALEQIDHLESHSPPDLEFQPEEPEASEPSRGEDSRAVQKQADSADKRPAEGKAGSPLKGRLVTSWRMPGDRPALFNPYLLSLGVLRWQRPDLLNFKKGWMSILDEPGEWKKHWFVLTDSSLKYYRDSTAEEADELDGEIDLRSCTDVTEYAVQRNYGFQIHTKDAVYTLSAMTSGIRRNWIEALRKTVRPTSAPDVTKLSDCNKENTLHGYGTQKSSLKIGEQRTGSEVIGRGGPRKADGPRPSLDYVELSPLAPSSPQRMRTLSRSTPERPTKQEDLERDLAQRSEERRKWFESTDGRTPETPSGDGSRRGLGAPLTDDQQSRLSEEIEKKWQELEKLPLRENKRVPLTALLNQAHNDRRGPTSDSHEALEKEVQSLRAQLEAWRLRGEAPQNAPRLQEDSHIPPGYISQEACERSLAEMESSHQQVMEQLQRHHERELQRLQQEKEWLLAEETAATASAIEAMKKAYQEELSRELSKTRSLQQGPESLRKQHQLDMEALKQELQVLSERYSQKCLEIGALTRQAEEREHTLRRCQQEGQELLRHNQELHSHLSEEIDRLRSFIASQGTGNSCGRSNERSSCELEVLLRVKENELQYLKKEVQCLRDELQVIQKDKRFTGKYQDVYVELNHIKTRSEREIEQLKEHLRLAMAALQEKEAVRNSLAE

Biological target: T1, Neuropilin-2 (mouse (endogenous in mLMECs)) (UniProt O35375)
T1 sequence: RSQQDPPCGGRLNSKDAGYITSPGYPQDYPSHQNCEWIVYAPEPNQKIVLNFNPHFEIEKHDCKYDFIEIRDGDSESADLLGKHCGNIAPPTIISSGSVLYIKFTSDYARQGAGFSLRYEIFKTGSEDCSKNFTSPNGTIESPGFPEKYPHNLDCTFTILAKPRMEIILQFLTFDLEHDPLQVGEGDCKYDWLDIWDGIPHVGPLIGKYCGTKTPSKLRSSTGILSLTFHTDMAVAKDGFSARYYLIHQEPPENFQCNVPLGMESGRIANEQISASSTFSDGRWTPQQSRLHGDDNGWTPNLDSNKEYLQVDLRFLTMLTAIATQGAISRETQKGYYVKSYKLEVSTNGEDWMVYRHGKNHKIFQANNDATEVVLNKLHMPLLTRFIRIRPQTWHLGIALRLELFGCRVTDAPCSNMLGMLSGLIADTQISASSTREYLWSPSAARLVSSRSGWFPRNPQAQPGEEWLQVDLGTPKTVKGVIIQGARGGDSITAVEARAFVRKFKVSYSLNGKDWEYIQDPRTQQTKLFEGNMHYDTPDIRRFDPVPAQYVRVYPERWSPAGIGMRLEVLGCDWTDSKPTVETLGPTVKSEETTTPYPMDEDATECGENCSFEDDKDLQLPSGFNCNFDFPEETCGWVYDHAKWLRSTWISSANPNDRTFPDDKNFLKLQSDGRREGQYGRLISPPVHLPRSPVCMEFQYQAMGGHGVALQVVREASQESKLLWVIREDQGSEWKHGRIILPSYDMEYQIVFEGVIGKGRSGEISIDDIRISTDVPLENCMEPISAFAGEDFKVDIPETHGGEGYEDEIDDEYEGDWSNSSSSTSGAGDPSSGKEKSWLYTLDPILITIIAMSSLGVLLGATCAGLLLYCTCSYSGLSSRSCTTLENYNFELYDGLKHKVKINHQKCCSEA
Test: affinity purification with mass spectrometry

Substance	binding
cortactin (from UniProt Q60598 1-546)	binds
cofilin-1 (from UniProt P18760 1-166)	binds
TRIO-binding protein (from UniProt Q99KW3 1-2014)	binds
